From PubChem BioAssay AID192 (DTP/NCI, 2004)
The list is a part of this screen's results and no random one: it gathers tests that were run many times, whatever their T/C, doses with no T/C, and many T/C values between a quarter and a half above the control. Further doses and runs are listed elsewhere. T/C is the treated group as % of the vehicle group. Some doses have a count of surviving animals in place of a T/C: the source holds a T/C of zero for them, seemingly a mark for toxic or unscored doses. Some survivor counts are full or nearly so, which does not show that the dose was tolerated: survival well below the control is almost never listed, so the zero probably covers shortened survival too. Counts of survivors are from the toxicity check (mostly the fifth day) where no day follows; animals may have died later. Schedule codes are those of the source, read here as Q, the interval in days (D) or hours (H), X, the number of doses. Some entries hold several experiments; the results are listed from low to high. For survival time, this PubChem deposit counts one and a half times the control or more as active, and values a quarter to a half above the control carry no call in these data; other NCI protocols may use other cut-offs. Numbered stars: 1 amine (or outer) side, 2 acyl side, 3 side chain; on linkers, the order of the positions; unused ones are H or OH. Peptide text beside a SMILES is read from it. * marks the point of attachment. γGlu = O=C(O)[CH](CCC(=O)[*:2])N[*:1]; Cbz = O=C(OCc1ccccc1)*

Test system: BDF1 mice, B16 melanoma ip, median survival T/C
Assay: NCI In Vivo Anticancer Drug Screen. Data for tumor model B16 Melanoma (intraperitoneal) in B6D2F1 (BDF1) mice
Conditions: T/C endpoint: median survival time, higher T/C = longer survival
Summary of the method: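 Vehicle-treated animals serve as the reference (C); treated animals (T) are scored for survival or tumor size after tumor transplantation.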

[1] = dose: 400.0 mg/kg/injection, schedule: Q01DX009 (ip), vehicle: Klucel (hydroxypropylcellulose) (HPC)
[2] = dose: 200.0 mg/kg/injection, schedule: Q01DX009 (ip), vehicle: saline with Tween-80
[3] = dose: 400.0 mg/kg/injection, schedule: Q01DX009 (ip), vehicle: saline with Tween-80
[4] = dose: 25.0 mg/kg/injection, schedule: Q01DX009 (ip), vehicle: Klucel (hydroxypropylcellulose) (HPC)
[5] = dose: 50.0 mg/kg/injection, schedule: Q01DX009 (ip), vehicle: saline with Tween-80
[6] = dose: 100.0 mg/kg/injection, schedule: Q01DX009 (ip), vehicle: Klucel (hydroxypropylcellulose) (HPC)
[7] = dose: 200.0 mg/kg/injection, schedule: Q01DX009 (ip), vehicle: Klucel (hydroxypropylcellulose) (HPC)
[8] = dose: 400.0 mg/kg/injection, schedule: Q01DX009 (ip), vehicle: saline
[9] = dose: 12.5 mg/kg/injection, schedule: Q01DX009 (ip), vehicle: Klucel (hydroxypropylcellulose) (HPC)
[10] = dose: 100.0 mg/kg/injection, schedule: Q01DX009 (ip), vehicle: saline with Tween-80

COC(=O)C1C2CC3c4[nH]c5ccc(OC)cc5c4CCN3CC2CC(OC(=O)c2cc(OC)c(OC)c(OC)c2)C1OC (stereo not given)
survivor count (dose: 0.71 mg/kg/injection, schedule: Q01DX009 (ip), vehicle: Klucel (hydroxypropylcellulose) (HPC)): 10 of 10
survivor count (dose: 5.7 mg/kg/injection, schedule: Q01DX009 (ip), vehicle: Klucel (hydroxypropylcellulose) (HPC)): 10 of 10
survivor count (dose: 11.4 mg/kg/injection, schedule: Q01DX009 (ip), vehicle: Klucel (hydroxypropylcellulose) (HPC)): 10 of 10
survivor count (dose: 91.25 mg/kg/injection, schedule: Q01DX009 (ip), vehicle: Klucel (hydroxypropylcellulose) (HPC)): 10 of 10

CNC(=S)NCc1ccc(C(=O)NC(C)C)cc1
survivor count [1]: 9 of 10

CCOC(=O)c1ccc(OC(=O)Nc2ccccc2)cc1
survivor count [2]: 10 of 10
survivor count [3]: 10 of 10

NC(N)=Nc1nc2ccccc2s1
survivor count (dose: 200.0 mg/kg/injection, schedule: Q04DX003 (ip), vehicle: Klucel (hydroxypropylcellulose) (HPC)): 9 of 10

CC1=C(/C=C/C(C)=C/C=C/C(C)=C/CO)C(C)(C)CCC1
survivor count (dose: 12.5 mg/kg/injection, schedule: Q01DX005 (ip), vehicle: saline with Tween-80): 10 of 10
survivor count (dose: 25.0 mg/kg/injection, schedule: Q01DX005 (ip), vehicle: saline with Tween-80): 10 of 10
survivor count (dose: 50.0 mg/kg/injection, schedule: Q01DX005 (ip), vehicle: saline with Tween-80): 10 of 10
survivor count (dose: 64.0 mg/kg/injection, schedule: Q01DX009 (ip), vehicle: saline with Tween-80): 9 of 10 and 10 of 10
survivor count (dose: 100.0 mg/kg/injection, schedule: Q01DX005 (ip), vehicle: saline with Tween-80): 10 of 10
survivor count (dose: 128.0 mg/kg/injection, schedule: Q01DX009 (ip), vehicle: saline with Tween-80): 8 of 10 and 10 of 10

CCCCOc1ccc(OCCCCCCCCCC[N+](C)(C)C)cc1
survivor count [4]: 10 of 10

CCc1ccc(NC(=O)C(c2ccccc2)c2ccccc2)cc1
survivor count [5]: 10 of 10
survivor count [6]: 10 of 10
survivor count [7]: 10 of 10
survivor count [1]: 7 of 10

COc1cc(C(=O)c2cc3c(cc2C)OCO3)cc(OC)c1OC
T/C [6]: 130 % of control
survivor count [7]: 5 of 10

C=CCNC(=O)NCC=C
survivor count [8]: 2 of 6

O=C(O)c1c(Cl)cccc1Cl
survivor count [5]: 10 of 10
survivor count (dose: 100.0 mg/kg/injection, schedule: Q04DX003 (ip), vehicle: saline with Tween-80): 10 of 10

CN1CCC(=C2c3ccccc3C(O)c3ccccc32)CC1 (stereo not given)
survivor count [6]: 0 of 10
survivor count [7]: 0 of 10
survivor count [1]: 0 of 10

CC(=O)OC1CCC(C(C)(C)C)CC1 (stereo not given)
survivor count [2]: 10 of 10

O=C1C2CC=CCC2C(=O)N1SC(Cl)(Cl)Cl (stereo not given)
survivor count (dose: 6.25 mg/kg/injection, schedule: Q01DX009 (ip), vehicle: saline with Tween-80): 10 of 10
survivor count (dose: 12.5 mg/kg/injection, schedule: Q01DX009 (ip), vehicle: saline with Tween-80): 10 of 10
survivor count (dose: 25.0 mg/kg/injection, schedule: Q01DX009 (ip), vehicle: saline with Tween-80): 9 of 10

CCC(=O)c1ccc2c(c1)N(C(C)CN(C)C)c1ccccc1S2 (stereo not given)
T/C (dose: 6.25 mg/kg/injection, schedule: Q01DX009 (ip), vehicle: saline): 125 % of control
survivor count (dose: 100.0 mg/kg/injection, schedule: Q01DX009 (ip), vehicle: saline): 2 of 10

NC(CCC(=O)NC(CCC(=O)O)C(=O)NC(CCC(=O)O)C(=O)O)C(=O)O (stereo not drawn) (γGlu-Glu-Glu-OH; configuration not given here)
survivor count [8]: 10 of 10

CCCCNC(C)[C@]1(O)Cc2c(O)c3c(c(O)c2[C@@H](OC2CC(N)C(O)C(C)O2)C1)C(=O)c1c(OC)cccc1C3=O (stereo not given in full)
survivor count (dose: 37.5 mg/kg/injection, schedule: Q01DX001 (ip), vehicle: water): 7 of 10 and 9 of 10
survivor count (dose: 75.0 mg/kg/injection, schedule: Q01DX001 (ip), vehicle: water): 0 of 10, 2 of 10, 3 of 10
survivor count (dose: 150.0 mg/kg/injection, schedule: Q01DX001 (ip), vehicle: water): 0 of 10

COC(=O)C(CSCc1ccccc1)NC(=O)OCc1ccccc1 (stereo not given)
survivor count [9]: 10 of 10
survivor count [4]: 9 of 9
survivor count [6]: 10 of 10
survivor count [7]: 10 of 10
survivor count [1]: 10 of 10

CC(=O)NCC1(c2ccccc2)CCN(CCCC(=O)c2ccc(F)cc2)CC1
survivor count [7]: 1 of 10
survivor count (dose: 200.0 mg/kg/injection, schedule: Q01DX009 (ip), vehicle: saline): 0 of 10
survivor count [8]: 0 of 10

CCCCCC/C=C\C(=O)O
survivor count [10]: 10 of 10
survivor count [2]: 2 of 10

C/C=C/CNc1ccccc1
survivor count [2]: 6 of 10

CCC(=O)OCC(=O)[C@]1(O)Cc2c(O)c3c(c(O)c2[C@@H](OC2CC(N)C(O)C(C)O2)C1)C(=O)c1c(OC)cccc1C3=O (stereo not given in full)
T/C (dose: 0.25 mg/kg/injection, schedule: Q01DX009 (ip), vehicle: saline): 128 % of control
T/C (dose: 0.5 mg/kg/injection, schedule: Q01DX009 (ip), vehicle: saline): 146 % of control
survivor count (dose: 4.0 mg/kg/injection, schedule: Q01DX009 (ip), vehicle: saline): 10 of 10
survivor count (dose: 8.0 mg/kg/injection, schedule: Q01DX009 (ip), vehicle: saline): 10 of 10

COc1ccc(NC(=O)Nc2ccc(Br)cc2)cc1
survivor count [2]: 10 of 10
survivor count [3]: 10 of 10

CC(=O)c1ccc(Oc2ccc(/C(C)=N\N=C(N)N)cc2)cc1
survivor count [5]: 4 of 6
survivor count [10]: 0 of 6

C1CCC2[N-]CC3CCCCC3[N-]CC3CCCCC3[N-]CC3CCCCC3[N-]CC2C1.[Cu] (stereo not given)
T/C (dose: 3.12 mg/kg/injection, schedule: Q01DX009 (ip), vehicle: Klucel (hydroxypropylcellulose) (HPC)): 133 and 139 % of control
T/C (dose: 6.25 mg/kg/injection, schedule: Q01DX009 (ip), vehicle: Klucel (hydroxypropylcellulose) (HPC)): 133, 152, 165, 167 % of control
T/C [9]: 128, 162, 172, 178 % of control
survivor count [4]: 6 of 10, 9 of 10, 10 of 10
survivor count (dose: 50.0 mg/kg/injection, schedule: Q01DX009 (ip), vehicle: Klucel (hydroxypropylcellulose) (HPC)): 0 of 10 and 1 of 10
survivor count [6]: 0 of 10

COC(=O)CNC(=O)C(NC(=O)C1CCCN1C(=O)OCc1ccccc1)C(C)C (stereo not drawn) (Cbz-Pro-Val-Gly-OMe; configuration not given here)
survivor count [2]: 10 of 10
survivor count [3]: 3 of 10

COc1cc2cc3c4cc(OC)c(OC)cc4cc[n+]3c(C)c2cc1OC
survivor count (dose: 50.0 mg/kg/injection, schedule: Q01DX009 (ip), vehicle: saline sonified): 6 of 6
survivor count (dose: 100.0 mg/kg/injection, schedule: Q01DX009 (ip), vehicle: saline sonified): 6 of 6
survivor count (dose: 200.0 mg/kg/injection, schedule: Q01DX009 (ip), vehicle: saline sonified): 6 of 6

CC1C=CCC(C)(C)C1 (stereo not given)
survivor count (dose: 200.0 mg/kg/injection, schedule: Q01DX009 (ip), vehicle: other): 10 of 10

O=C(Nc1nncs1)c1ccncc1
survivor count [3]: 7 of 10

Cc1ccc(NC(=S)NC(Cc2ccccc2)c2ccccc2)cc1 (stereo not given)
survivor count [6]: 10 of 10
survivor count [7]: 10 of 10
survivor count [1]: 10 of 10

COc1cccc2c1C(=O)c1c(O)c3c(c(O)c1C2=O)C[C@@](O)(C(=O)CN1CCN(C)CC1)C[C@@H]3OC1CC(N)C(O)C(C)O1 (stereo not given in full)
T/C (dose: 6.25 mg/kg/injection, schedule: Q01DX009 (ip), vehicle: water): 133 % of control
T/C (dose: 12.5 mg/kg/injection, schedule: Q01DX009 (ip), vehicle: water): 128 % of control
T/C (dose: 25.0 mg/kg/injection, schedule: Q01DX009 (ip), vehicle: water): 139 % of control
